Values from PubChem BioAssay AID652272 (Drosophila RNAi Screening Center, 2013)

- Test: 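Genes whose knock-down decreases or increases Hedgehog reporter output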 (primary screen)
- Cell system: Drosophila clone 8 (Cl8) cells
- Knock-down reagent: long dsRNA against Drosophila genes
- Detection: 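Plate reader light from a firefly reporter under a ptc promoter fragment that responds to Hedgehog, with Renilla light as transfection reference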
- Direction: firefly Hh reporter signal: higher = more ptc reporter light; Renilla reference signal: higher = more Renilla control light
- Active means: 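Called a hit if the two-replicate mean z-score lies below -2 or above +3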
- Calls: active = hit: reporter lowered or raised; inactive = not a hit
The screen tested about 21,000 reagents; this is an unselected part of those with a known target gene and a result. Over the whole deposit, 503 (2.4%) were called active. 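Raw plate light values, not normalised; calls rest on replicate z-scores that were not deposited; hits include reporter decreases as well as increases.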 Entries without a mark were called inactive. Reagent sequences are not shown. Not given: the amount of reagent, the time to read-out.

| gene | PubChem SID | firefly Hh reporter signal, replicate 1 | firefly Hh reporter signal, replicate 2 | firefly Hh reporter signal, replicate 3 | Renilla reference signal, replicate 1 | Renilla reference signal, replicate 2 |
| --- | --- | --- | --- | --- | --- | --- |
| Caf1-180 | SID104197599 | 75284 | 1.07e5 | – | 1664 | 2268 |
| Sumo | SID104183403 | 35450 | 38950 | – | 2028 | 1578 |
| CG5614 | SID104195637 | 1.72e5 | 7.53e5 | 1.66e5 | 5184 | 5191 |
| Hsepi | SID104184778 | 94736 | 63586 | – | 2300 | 6048 |
| CG1951 | SID104195195 | 1.02e5 | 1.25e5 | – | 1576 | 3272 |
| Syx17 | SID104188383 | 1.92e5 | 1.01e5 | – | 7440 | 4204 |
| CG32813 | SID104197740 | 72355 | 2.94e5 | – | 1483 | 11607 |
| CG42493 | SID104185101 | 1.75e5 | 2.41e5 | – | 4374 | 10729 |
| CG13722 | SID104188123 | 58088 | 58480 | – | 5579 | 4947 |
| CG14606 | SID104192342 | 76784 | 1.08e5 | – | 2804 | 3131 |
| CG34181 | SID104180863 | 5.31e5 | 1.41e5 | – | 27474 | 8465 |
| CycY | SID104182212 | 1.06e5 | 53597 | – | 4612 | 2596 |
| DopEcR | SID104188321 | 1.05e5 | 50657 | – | 4371 | 2040 |
| CG7130 | SID104191589 | 1.47e5 | 1.40e5 | – | 4944 | 4105 |
| Spt-I | SID104186652 | 1.18e5 | 56804 | – | 2688 | 5104 |
| shams | SID104196382 | 4.75e5 | 85259 | – | 23556 | 2364 |
| cav | SID104195787 | 80185 | 82179 | – | 3930 | 3319 |
| CG4297 | SID104180443 | 1.10e5 | 85477 | – | 2150 | 2106 |
| CG33467 | SID104185317 | 1.92e5 | 4.60e5 | – | 6080 | 17474 |
| CG12716 | SID104199285 | 90916 | 3.16e5 | – | 2185 | 12473 |
| CG9316 | SID104182987 | 75545 | 61003 | – | 2187 | 6085 |
| CG14634 | SID104197736 | 50459 | 2.14e5 | – | 1010 | 7079 |
| hll | SID104181736 | 37360 | 48776 | – | 2326 | 3100 |
| CG18539 | SID104186558 | 89154 | 80666 | – | 2257 | 6251 |
| CG2926 | SID104192113 | 1.14e5 | 88051 | – | 3744 | 2956 |
| Nop60B | SID104184419 | 85344 | 50560 | – | 3808 | 2289 |
| CG43088 | SID104198847 | 7.04e5 | 3.65e5 | – | 41624 | 8544 |
| CG3625 | SID104179800 | 5.79e5 | 2.69e5 | – | 29163 | 12754 |
| CG3625 | SID104180413 | 1.02e5 | 90040 | – | 4560 | 4000 |
| CG5399 | SID104195583 | 77478 | 93586 | – | 3328 | 2811 |
| Mtap | SID104186682 | 1.02e5 | 88141 | – | 4640 | 4279 |
| Tfb1 | SID104186874 | 1.29e5 | 1.20e5 | – | 4684 | 4381 |
| CG13255 | SID104191494 | 1.23e5 | 1.38e5 | – | 4371 | 3860 |
| Spt | SID104186915 | 1.35e5 | 62370 | – | 3645 | 5669 |
| TotC | SID104193241 | 62219 | 2.18e5 | – | 12277 | 5849 |
| Cyp4d1 | SID104197486 | 4.55e5 | 1.49e5 | – | 24756 | 3456 |
| Cyp4d1 | SID104198248 | 1.02e5 | 2.87e5 | – | 3685 | 10262 |
| pgc | SID104183891 | 1.56e5 | 62385 | – | 3552 | 3250 |
| wts | SID104196888 | 41010 | 29325 | – | 1417 | 2067 |

5 entries from above, reformatted:
gene	PubChem SID	firefly Hh reporter signal, replicate 1	firefly Hh reporter signal, replicate 2	firefly Hh reporter signal, replicate 3	Renilla reference signal, replicate 1	Renilla reference signal, replicate 2
CG4297	SID104180443	1.10e5	85477		2150	2106
CG33467	SID104185317	1.92e5	4.60e5		6080	17474
CG12716	SID104199285	90916	3.16e5		2185	12473
CG9316	SID104182987	75545	61003		2187	6085
CG14634	SID104197736	50459	2.14e5		1010	7079
